Values quoted from earlier work in patent publication US8372383B2, “Agent for inducing hair growth containing extracts of saw palmetto and swertia” (Medidermis Ltd, priority 1999, dated 2013).
At least one compound was matched to its structure with a doubt left.

Tested on: hair loss
Settings: topical, concentrations from 1-5%; cited from earlier work

Compound: Nc1cc(N2CCCCC2)nc(N)[n+]1[O-] [Minoxidil 5.0%, minoxidil]
- improvement in hair loss, share of patients: ⅓-⅔
